In article PMC9561260:
No constants are given. Whether binding was seen depends on the method and setting. In cells and extracts the contact can be indirect. These calls come from enrichment with a bait or labelling near it, and not all partners need be listed. Tags and fused reporters may be left off the sequences shown.

T1: 2× HA-3× FLAG-Eya1 (UniProt P97767)
T1 sequence: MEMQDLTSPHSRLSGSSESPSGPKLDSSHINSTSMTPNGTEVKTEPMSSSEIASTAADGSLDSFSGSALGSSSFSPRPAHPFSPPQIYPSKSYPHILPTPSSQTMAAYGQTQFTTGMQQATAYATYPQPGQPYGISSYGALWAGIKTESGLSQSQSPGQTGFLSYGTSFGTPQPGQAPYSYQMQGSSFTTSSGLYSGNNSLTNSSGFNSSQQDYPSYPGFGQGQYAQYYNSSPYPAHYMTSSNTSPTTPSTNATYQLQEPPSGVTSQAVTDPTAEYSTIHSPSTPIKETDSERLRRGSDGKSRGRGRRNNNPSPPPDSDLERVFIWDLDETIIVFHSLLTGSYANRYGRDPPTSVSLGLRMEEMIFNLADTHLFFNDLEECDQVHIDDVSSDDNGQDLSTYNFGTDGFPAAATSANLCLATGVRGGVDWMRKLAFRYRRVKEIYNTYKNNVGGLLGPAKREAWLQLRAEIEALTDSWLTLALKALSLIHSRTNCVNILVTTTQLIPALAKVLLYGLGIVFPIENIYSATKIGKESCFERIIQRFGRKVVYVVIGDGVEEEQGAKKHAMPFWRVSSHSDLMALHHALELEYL

B1: FAM120A (constitutive activator of PPAR-gamma-like protein) (protein, UniProt Q9NZB2 1-1118)
chain: MGVQGFQDYIEKHCPSAVVPVELQKLARGSLVGGGRQRPPQTPLRLLVDADNCLHRLYGGFYTDWVSGGQWNHMLGYLAALAKACFGGNIELFVFFNGALEKARLHEWVKRQGNERQTAQQIVSHVQNKGTPPPKVWFLPPVCMAHCIRLALIRFHVKVAQSIEDHHQEVIGFCRENGFHGLVAYDSDYALCNIPYYFSAHALKLSRNGKSLTTSQYLMHEVAKQLDLNPNRFPIFAALLGNHILPDEDLASFHWSLLGPEHPLASLKVRAHQLVLPPCDVVIKAVADYVRNIQDTSDLDAIAKDVFQHSQSRTDDKVIRFKRAIGYYSATSKPMSFHPPHYLAARPGPFGMPGMVPPHVPPQMLNIPQTSLQAKPVAPQVPSPGGAPGQGPYPYSLSEPAPLTLDTSGKNLTEQNSYSNIPHEGKHTPLYERSSPINPAQSGSPNHVDSAYFPGSSTSSSSDNDEGSGGATNHISGNKIGWEKTGSHSEPQARGDPGDQTKAEGSSTASSGSQLAEGKGSQMGTVQPIPCLLSMPTRNHMDITTPPLPPVAPEVLRVAEHRHKKGLMYPYIFHVLTKGEIKIAVSIEDEANKDLPPAALLYRPVRQYVYGVLFSLAESRKKTERLAFRKNRLPPEFSPVIIKEWAAYKGKSPQTPELVEALAFREWTCPNLKRLWLGKAVEDKNRRMRAFLACMRSDTPAMLNPANVPTHLMVLCCVLRYMVQWPGARILRRQELDAFLAQALSPKLYEPDQLQELKIENLDPRGIQLSALFMSGVDMALFANDACGQPIPWEHCCPWMYFDGKLFQSKLLKASREKTPLIDLCDGQADQAAKVEKMRQSVLEGLSFSRQSHTLPFPPPPALPFYPASAYPRHFGPVPPSQGRGRGFAGVCGFGGPYGETVATGPYRAFRVAAASGHCGAFSGSDSSRTSKSQGGVQPIPSQGGKLEIAGTVVGHWAGSRRGRGGRGPFPLQVVSVGGPARGRPRGVISTPVIRTFGRGGRYYGRGYKNQAAIQGRPPYAASAEEVAKELKSKSGESKSSAMSSDGSLAENGVMAEEKPAPQMNGSTGDARAPSHSESALNNDSKTCNTNPHLNALSTDSACRREAALEAAVLNKEE
B2: transcription termination factor TTF2 (protein, UniProt Q9UNY4 1-1162)
chain: MEEVRCPEHGTFCFLKTGVRDGPNKGKSFYVCRADTCSFVRATDIPVSHCLLHEDFVVELQGLLLPQDKKEYRLFFRCIRSKAEGKRWCGSIPWQDPDSKEHSVSNKSQHASETFHHSSNWLRNPFKVLDKNQEPALWKQLIKGEGEEKKADKKQREKGDQLFDQKKEQKPEMMEKDLSSGLVPKKKQSVVQEKKQEEGAEIQCEAETGGTHKRDFSEIKSQQCQGNELTRPSASSQEKSSGKSQDVQRESEPLREKVTQLLPQNVHSHNSISKPQKGGPLNKEYTNWEAKETKAKDGPSIQATQKSLPQGHFQERPETHSVPAPGGPAAQAAPAAPGLSLGEGREAATSSDDEEEDDVVFVSSKPGSPLLFDSTLDLETKENLQFPDRSVQRKVSPASGVSKKVEPSDPVARRVYLTTQLKQKKSTLASVNIQALPDKGQKLIKQIQELEEVLSGLTLSPEQGTNEKSNSQVPQQSHFTKTTTGPPHLVPPQPLPRRGTQPVGSLELKSACQVTAGGSSQCYRGHTNQDHVHAVWKITSEAIGQLHRSLESCPGETVVAEDPAGLKVPLLLHQKQALAWLLWRESQKPQGGILADDMGLGKTLTMIALILTQKNQEKKEEKEKSTALTWLSKDDSCDFTSHGTLIICPASLIHHWKNEVEKRVNSNKLRVYLYHGPNRDSRARVLSTYDIVITTYSLVAKEIPTNKQEAEIPGANLNVEGTSTPLLRIAWARIILDEAHNVKNPRVQTSIAVCKLQACARWAVTGTPIQNNLLDMYSLLKFLRCSPFDEFNLWRSQVDNGSKKGGERLSILTKSLLLRRTKDQLDSTGRPLVILPQRKFQLHHLKLSEDEETVYNVFFARSRSALQSYLKRHESRGNQSGRSPNNPFSRVALEFGSEEPRHSEAADSPRSSTVHILSQLLRLRQCCCHLSLLKSALDPMELKGEGLVLSLEEQLSALTLSELRDSEPSSTVSLNGTFFKMELFEGMRESTKISSLLAELEAIQRNSASQKSVIVSQWTNMLKVVALHLKKHGLTYATIDGSVNPKQRMDLVEAFNHSRGPQVMLISLLAGGVGLNLTGGNHLFLLDMHWNPSLEDQACDRIYRVGQQKDVVIHRFVCEGTVEEKILQLQEKKKDLAKQVLSGSGESVTKLTLADLRVLFGI
B3: RFC1 (replication factor, DNA-dependetn ATPase) (protein, UniProt P35251 1-1148)
chain: MDIRKFFGVIPSGKKLVSETVKKNEKTKSDEETLKAKKGIKEIKVNSSRKEDDFKQKQPSKKKRIIYDSDSESEETLQVKNAKKPPEKLPVSSKPGKISRQDPVTYISETDEEDDFMCKKAASKSKENGRSTNSHLGTSNMKKNEENTKTKNKPLSPIKLTPTSVLDYFGTGSVQRSNKKMVASKRKELSQNTDESGLNDEAIAKQLQLDEDAELERQLHEDEEFARTLAMLDEEPKTKKARKDTEAGETFSSVQANLSKAEKHKYPHKVKTAQVSDERKSYSPRKQSKYESSKESQQHSKSSADKIGEVSSPKASSKLAIMKRKEESSYKEIEPVASKRKENAIKLKGETKTPKKTKSSPAKKESVSPEDSEKKRTNYQAYRSYLNREGPKALGSKEIPKGAENCLEGLIFVITGVLESIERDEAKSLIERYGGKVTGNVSKKTNYLVMGRDSGQSKSDKAAALGTKIIDEDGLLNLIRTMPGKKSKYEIAVETEMKKESKLERTPQKNVQGKRKISPSKKESESKKSRPTSKRDSLAKTIKKETDVFWKSLDFKEQVAEETSGDSKARNLADDSSENKVENLLWVDKYKPTSLKTIIGQQGDQSCANKLLRWLRNWQKSSSEDKKHAAKFGKFSGKDDGSSFKAALLSGPPGVGKTTTASLVCQELGYSYVELNASDTRSKSSLKAIVAESLNNTSIKGFYSNGAASSVSTKHALIMDEVDGMAGNEDRGGIQELIGLIKHTKIPIICMCNDRNHPKIRSLVHYCFDLRFQRPRVEQIKGAMMSIAFKEGLKIPPPAMNEIILGANQDIRQVLHNLSMWCARSKALTYDQAKADSHRAKKDIKMGPFDVARKVFAAGEETAHMSLVDKSDLFFHDYSIAPLFVQENYIHVKPVAAGGDMKKHLMLLSRAADSICDGDLVDSQIRSKQNWSLLPAQAIYASVLPGELMRGYMTQFPTFPSWLGKHSSTGKHDRIVQDLALHMSLRTYSSKRTVNMDYLSLLRDALVQPLTSQGVDGVQDVVALMDTYYLMKEDFENIMEISSWGGKPSPFSKLDPKVKAAFTRAYNKEAHLTPYSLQAIKASRHSTSPSLDSEYNEELNEDDSQSDEKDQDAIETDAMIKKKTKSSKPSKPEKDKEPRKGKGKSSKK
B4: MCM3 (DNA replication licensing factor) (protein, UniProt P25205 1-808)
chain: MAGTVVLDDVELREAQRDYLDFLDDEEDQGIYQSKVRELISDNQYRLIVNVNDLRRKNEKRANRLLNNAFEELVAFQRALKDFVASIDATYAKQYEEFYVGLEGSFGSKHVSPRTLTSCFLSCVVCVEGIVTKCSLVRPKVVRSVHYCPATKKTIERRYSDLTTLVAFPSSSVYPTKDEENNPLETEYGLSVYKDHQTITIQEMPEKAPAGQLPRSVDVILDDDLVDKAKPGDRVQVVGTYRCLPGKKGGYTSGTFRTVLIACNVKQMSKDAQPSFSAEDIAKIKKFSKTRSKDIFDQLAKSLAPSIHGHDYVKKAILCLLLGGVERDLENGSHIRGDINILLIGDPSVAKSQLLRYVLCTAPRAIPTTGRGSSGVGLTAAVTTDQETGERRLEAGAMVLADRGVVCIDEFDKMSDMDRTAIHEVMEQGRVTIAKAGIHARLNARCSVLAAANPVYGRYDQYKTPMENIGLQDSLLSRFDLLFIMLDQMDPEQDREISDHVLRMHRYRAPGEQDGDAMPLGSAVDILATDDPNFSQEDQQDTQIYEKHDNLLHGTKKKKEKMVSAAFMKKYIHVAKIIKPVLTQESATYIAEEYSRLRSQDSMSSDTARTSPVTARTLETLIRLATAHAKARMSKTVDLQDAEEAVELVQYAYFKKVLEKEKKRKKRSEDESETEDEEEKSQEDQEQKRKRRKTRQPDAKDGDSYDPYDFSDTEEEMPQVHTPKTADSQETKESQKVELSESRLKAFKVALLDVFREAHAQSIGMNRLTESINRDSEEPFSSVEIQAALSKMQDDNQVMVSEGIIFLI

biological target: T1, 2× HA-3× FLAG-Eya1; assay: affinity purification with mass spectrometry; tandem purification of HF-Eya1 from lysate of stable HEK293 cells: anti-FLAG M2 beads, FLAG peptide elution, then anti-HA agarose; 50 mM Tris-HCl pH 7.5, 150 mM NaCl, 0.1% Nonidet P-40, 4°C; 12 bands (B1-B12) cut from a silver-stained gel

binding, binds:
B1
B2
B3
B4
